According to PMC5790771:
These are yes or no findings as the source states them, for the method shown. Some binding calls cover weakened binding; strength is not graded here.

Chains of the proteins cited; added tags and fusions are not shown. Lines headed by an entry give the natural chain unless they say otherwise; changes in a name come on top. A line that says so, or that is headed by a name, gives the form on record, which may keep a tag or linker. Residues count along the entry.
UniProt Q9LJE4, residues 51-596: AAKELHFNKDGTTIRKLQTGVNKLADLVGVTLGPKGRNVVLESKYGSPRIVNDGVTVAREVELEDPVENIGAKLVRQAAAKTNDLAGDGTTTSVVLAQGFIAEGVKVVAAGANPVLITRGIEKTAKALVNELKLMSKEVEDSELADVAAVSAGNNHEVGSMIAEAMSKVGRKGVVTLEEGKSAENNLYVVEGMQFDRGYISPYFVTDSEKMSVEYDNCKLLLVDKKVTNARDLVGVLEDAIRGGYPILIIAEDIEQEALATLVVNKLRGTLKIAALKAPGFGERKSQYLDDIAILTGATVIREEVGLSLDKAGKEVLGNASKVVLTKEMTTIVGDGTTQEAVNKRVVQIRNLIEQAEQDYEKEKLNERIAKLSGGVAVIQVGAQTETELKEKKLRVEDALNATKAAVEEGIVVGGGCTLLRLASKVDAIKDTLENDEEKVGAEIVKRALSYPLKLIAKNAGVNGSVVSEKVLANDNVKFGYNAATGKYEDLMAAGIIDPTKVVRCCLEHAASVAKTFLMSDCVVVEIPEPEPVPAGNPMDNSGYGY
Cpn60α2 (At2g28000) (P21238, form named): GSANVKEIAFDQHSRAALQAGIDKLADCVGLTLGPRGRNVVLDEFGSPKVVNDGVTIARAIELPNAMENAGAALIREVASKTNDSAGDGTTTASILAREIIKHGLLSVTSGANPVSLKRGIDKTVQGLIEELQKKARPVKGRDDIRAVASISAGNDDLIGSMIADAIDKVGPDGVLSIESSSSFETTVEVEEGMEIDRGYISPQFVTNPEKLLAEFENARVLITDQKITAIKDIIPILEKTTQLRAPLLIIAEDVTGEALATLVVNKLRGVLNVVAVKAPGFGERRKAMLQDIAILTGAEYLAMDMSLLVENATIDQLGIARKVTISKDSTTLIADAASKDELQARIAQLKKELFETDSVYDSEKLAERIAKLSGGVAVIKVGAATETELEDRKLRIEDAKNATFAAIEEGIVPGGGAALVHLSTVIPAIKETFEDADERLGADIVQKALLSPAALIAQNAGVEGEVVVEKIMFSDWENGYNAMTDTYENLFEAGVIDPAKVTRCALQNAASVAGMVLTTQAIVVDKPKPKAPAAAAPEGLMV

Tests used:
[1] = target: Cpn60β2 (At3g13470) (A. thaliana) (UniProt Q9LJE4); assay: SEC; 300 μM β2 and 150 μM mt-cpn10 reconstituted with Mg-ATP (500 μl), Superdex 200 run at 4°C; fractions on SDS-PAGE; both purified
[2] = target: T1, Cpn60β1 (At5g56500) (A. thaliana) (UniProt C0Z361); assay: native gel or EMSA; reconstitution: 150 μM Cpn60α2 with 100 μM Cpn60β and 50 μM Cpn10 (GroES, mt-cpn10, Cpn20 or Cpn10(2)); 50 mM Tris-HCl pH 8, 0.3 M NaCl, 10 mM MgCl2, 16 mM KCl, 2 mM DTT, 5 mM ATP; 5 min at room temperature, 1 h at 30°C; 6% native polyacrylamide gel; both purified
T1 sequence: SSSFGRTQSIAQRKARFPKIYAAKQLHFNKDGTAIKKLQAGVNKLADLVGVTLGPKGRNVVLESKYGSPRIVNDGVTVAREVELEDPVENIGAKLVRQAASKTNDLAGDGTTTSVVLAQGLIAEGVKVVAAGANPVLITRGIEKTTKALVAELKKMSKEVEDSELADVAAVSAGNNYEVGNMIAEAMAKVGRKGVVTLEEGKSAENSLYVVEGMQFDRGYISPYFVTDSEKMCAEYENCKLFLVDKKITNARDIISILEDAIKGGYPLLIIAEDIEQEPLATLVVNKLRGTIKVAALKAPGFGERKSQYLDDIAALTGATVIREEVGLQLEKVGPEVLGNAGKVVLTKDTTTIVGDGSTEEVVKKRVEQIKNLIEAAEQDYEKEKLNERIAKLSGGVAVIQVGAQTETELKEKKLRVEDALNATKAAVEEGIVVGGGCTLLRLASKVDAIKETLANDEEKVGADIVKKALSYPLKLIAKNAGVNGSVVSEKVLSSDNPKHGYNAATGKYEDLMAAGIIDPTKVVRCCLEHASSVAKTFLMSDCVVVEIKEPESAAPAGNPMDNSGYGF

Row | Substance | binding [1] | binding [2]
1 | Cpn60β2 (At3g13470) (from UniProt Q9LJE4 51-596) | no binding (condition: gel filtration at 4°C) | –
2 | Cpn60α2 (At2g28000) (from UniProt P21238 46-586) | – | binds
